Source: PMC9976902, “Interaction of human HelQ with DNA polymerase delta halts DNA synthesis and stimulates DNA single-strand annealing” (Nucleic Acids Research, 2022)

T1: N-mVenus fused to POLD3 (human) (UniProt Q15054)
T1 sequence: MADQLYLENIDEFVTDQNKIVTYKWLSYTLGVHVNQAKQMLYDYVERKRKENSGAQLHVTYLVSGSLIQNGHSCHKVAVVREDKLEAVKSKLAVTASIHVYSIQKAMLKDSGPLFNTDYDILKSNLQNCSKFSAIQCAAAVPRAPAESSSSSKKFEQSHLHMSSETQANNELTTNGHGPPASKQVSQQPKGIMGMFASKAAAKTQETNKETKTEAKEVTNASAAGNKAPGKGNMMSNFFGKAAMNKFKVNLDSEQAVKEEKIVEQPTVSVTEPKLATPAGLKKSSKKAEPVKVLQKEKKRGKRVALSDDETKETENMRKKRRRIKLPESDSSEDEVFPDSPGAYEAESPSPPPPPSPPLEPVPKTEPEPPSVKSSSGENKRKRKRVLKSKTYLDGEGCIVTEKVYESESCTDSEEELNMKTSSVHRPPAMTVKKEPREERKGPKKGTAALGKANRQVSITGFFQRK

B1: C-mVenus fused to N-HelQ (HelQ amino acids 1–241) (domain or fragment, UniProt Q8TDG4 1-241)
chain: MDECGSRIRRRVSLPKRNRPSLGCIFGAPTAAELVPGDEGKEEEEMVAENRRRKTAGVLPVEVQPLLLSDSPECLVLGGGDTNPDLLRHMPTDRGVGDQPNDSEVDMFGDYDSFTENSFIAQVDDLEQKYMQLPEHKKHATDFATENLCSESIKNKLSITTIGNLTELQTDKHTENQSGYEGVTIEPGADLLYDVPSSQAIYFENLQNSSNDLGDHSMKERDWKSSSHNTVNEELPHNCIE

Assays:
[1] = molecular target: T1, N-mVenus fused to POLD3 (human); assay: split reporter; BiFC with split mVenus (1–154 / 155–238) in E. coli BL21AI co-expressing an NmVenus and a CmVenus protein; induced with L-arabinose (0.05% w/v) and IPTG (1 mM); cells in PBS in 96-well plates imaged at 515–527 nm, 5–180 min after induction
[2] = molecular target: N-terminal fragment of the mVenus fluorescent protein (1–154aa); assay: as above

Row | Molecule | binding [1] | binding [2]
1 | C-terminal fragment of mVenus (155–238aa) (domain or fragment) | no binding | –
2 | B1 | – | no binding

These are yes or no findings as the source states them, for the method shown. In cells and extracts the contact can be indirect. Sequences can lack the tags named with a protein.
